{"source": "the supplement of paper PMC8426693", "note": "This is one part of the list.", "data": [{"test_system": "SARS-CoV-2 5_SL7 RNA", "assay": "NMR binding call after quantification (hit when 2 of 3 NMR criteria are met) (binary (1 = binding, 0 = not binding)); higher = binding", "settings": "RNA concentration 10 µM; fragment concentration 200 µM; 293 K", "values": [{"compound": "CNS(=O)(=O)Cc1cc(C)on1", "NMR binding call": 0}, {"compound": "CN1CCN(C(=O)CO)CC1", "NMR binding call": 0}, {"compound": "Cc1ccc(C)c(OC(=O)c2ccncc2)c1", "NMR binding call": 0}, {"compound": "CCN(CC)C(=O)c1cc(C)no1", "NMR binding call": 0}, {"compound": "CS(=O)(=O)N1CCCC(C(=O)O)C1", "note": "(configuration not stated)", "NMR binding call": 0}, {"compound": "CN(C)C(=O)CNc1ccccc1", "NMR binding call": 0}, {"compound": "Cc1noc(CN2CCC(CO)CC2)n1", "NMR binding call": 0}, {"compound": "O=C1CN(Cc2ccccc2)CC(=O)N1", "NMR binding call": 0}, {"compound": "CC(=O)Nc1nnc(SC(C)C)s1", "NMR binding call": 0}, {"compound": "COc1cccc2c1CCCC(=O)N2", "NMR binding call": 0}, {"compound": "Cc1cnc(NC(=O)CCC2CCCC2)s1", "NMR binding call": 0}, {"compound": "CC(C(N)=O)N1CCN(S(C)(=O)=O)CC1", "note": "(configuration not stated)", "NMR binding call": 0}, {"compound": "CC1CNCCN1CCO", "note": "(configuration not stated)", "NMR binding call": 0}, {"compound": "CCn1ccc(CNC)n1", "NMR binding call": 0}, {"compound": "O=C(NCCc1ccc(F)cc1)c1ccco1", "NMR binding call": 0}, {"compound": "NC(=O)c1ccnc(NC2CC=CC2)c1", "NMR binding call": 0}, {"compound": "CN1CCCC(OC(=O)c2ccco2)C1", "note": "(configuration not stated)", "NMR binding call": 0}, {"compound": "CNC(=O)CN1CCNCC1", "NMR binding call": 0}, {"compound": "Cc1nnc(NC(=O)N2CCOCC2)s1", "NMR binding call": 0}, {"compound": "Cc1ccc(NC(=O)c2ccco2)cc1O", "NMR binding call": 0}, {"compound": "Cc1c(Cl)cccc1NC(=O)C1CCCO1", "note": "(configuration not stated)", "NMR binding call": 0}, {"compound": "N#Cc1ccc(CNCc2ccc(F)cc2)cc1", "NMR binding call": 0}, {"compound": "CC(=O)Nc1cc2c(cc1C)OCO2", "NMR binding call": 0}, {"compound": "CN(C)Cc1ccc(C(=O)O)o1.Cl", "NMR binding call": 0}, {"compound": "Cl.NC1CCN(S(=O)(=O)c2ccccc2)C1", "note": "(configuration not stated)", "NMR binding call": 0}, {"compound": "Cc1ccc(CN2CCS(=O)(=O)CC2)cc1", "NMR binding call": 0}, {"compound": "C1CN(CC2CCOCC2)CCN1", "NMR binding call": 0}]}]}
